Laboratory results published in US20190160180A1 (FUSION PHARMACEUTICALS, published 2019).
Residue numbers refer to the chain shown, from its start. No constants are given. Whether binding was seen depends on the method and setting. Some entries that bind do so weakly or less than the wild type.

Columns and labels:
[1] = molecular target: T1, human Endosialin expressed by Sjsa-1 cells (human) (UniProt Q9HCU0); test: flow cytometry on Sjsa-1 cells
T1 sequence: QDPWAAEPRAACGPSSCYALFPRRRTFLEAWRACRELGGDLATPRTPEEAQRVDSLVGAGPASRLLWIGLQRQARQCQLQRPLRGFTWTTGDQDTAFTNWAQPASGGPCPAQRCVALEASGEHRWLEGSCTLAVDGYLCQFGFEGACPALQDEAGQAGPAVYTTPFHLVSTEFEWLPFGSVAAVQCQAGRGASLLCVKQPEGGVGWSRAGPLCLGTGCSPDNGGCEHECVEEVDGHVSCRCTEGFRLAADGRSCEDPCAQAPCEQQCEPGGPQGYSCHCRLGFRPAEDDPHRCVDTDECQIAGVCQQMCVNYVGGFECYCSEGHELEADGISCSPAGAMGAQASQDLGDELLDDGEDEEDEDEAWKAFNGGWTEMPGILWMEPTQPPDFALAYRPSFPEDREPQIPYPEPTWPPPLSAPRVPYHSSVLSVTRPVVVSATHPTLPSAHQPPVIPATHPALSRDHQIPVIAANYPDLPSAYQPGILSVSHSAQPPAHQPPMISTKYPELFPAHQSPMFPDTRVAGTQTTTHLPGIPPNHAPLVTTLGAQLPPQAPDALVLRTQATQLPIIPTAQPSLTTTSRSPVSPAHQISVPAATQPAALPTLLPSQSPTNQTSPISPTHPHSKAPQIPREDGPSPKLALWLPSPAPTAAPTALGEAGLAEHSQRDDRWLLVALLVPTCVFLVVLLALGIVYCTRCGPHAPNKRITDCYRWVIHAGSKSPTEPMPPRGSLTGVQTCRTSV

[2] = molecular target: T2, human recombinant Endosialin (human, UniProt Q9HCU0 18-687, limits assumed); test: ELISA, plate coated with recombinant Endosialin
T2 construct: Coated on ELISA plates at 1 ug/ml; also called TEM-1; TEM1
T2 sequence: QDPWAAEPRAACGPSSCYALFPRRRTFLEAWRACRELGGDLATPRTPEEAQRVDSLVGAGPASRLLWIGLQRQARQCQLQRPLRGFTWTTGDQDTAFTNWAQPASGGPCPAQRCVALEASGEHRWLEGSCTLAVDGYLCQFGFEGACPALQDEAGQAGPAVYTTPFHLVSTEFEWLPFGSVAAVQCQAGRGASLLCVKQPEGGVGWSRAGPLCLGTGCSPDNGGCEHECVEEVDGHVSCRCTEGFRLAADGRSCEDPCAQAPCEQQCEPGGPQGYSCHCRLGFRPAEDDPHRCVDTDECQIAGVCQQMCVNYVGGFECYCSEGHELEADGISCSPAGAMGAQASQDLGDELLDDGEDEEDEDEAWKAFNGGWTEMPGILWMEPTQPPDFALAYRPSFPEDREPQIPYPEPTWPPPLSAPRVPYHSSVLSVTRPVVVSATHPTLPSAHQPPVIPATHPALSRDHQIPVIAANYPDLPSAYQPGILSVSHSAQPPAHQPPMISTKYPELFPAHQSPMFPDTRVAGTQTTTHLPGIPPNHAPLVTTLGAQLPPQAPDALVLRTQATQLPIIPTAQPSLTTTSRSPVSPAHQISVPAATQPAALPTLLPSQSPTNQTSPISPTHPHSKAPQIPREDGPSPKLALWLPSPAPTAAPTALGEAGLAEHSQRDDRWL
Protocol: Materials and Methods: (FIG. 2). (A) Ninety-six well plates (NUNC Maxisorp modules) were pre-coated with human recombinant Endosialin (1 μg/ml) overnight at 4° C. After blocking with 1% BSA in PBS+0.1% Tween-20 for 1 hour at 4° C., mMP-E-8.3, cMP-E-8.3, hMP-E-8.3 and a commercial antibody against Endosialin at the indicated concentration were added and incubated for 2 hours at room temperature. After several washes with PBS+0.1% Tween-20, a goat anti-mouse or anti-human IgG-HRP solution was added to each well and incubated for 1 hour at 37° C. After washes, stabilized chromogen was added to each well for at least 10 minutes in the dark, then the reaction was stopped with the addition of 1 N H₂SO4 and the absorbance was read at 450 nm with an ELISA reader. (B) Sjsa-1 human osteosarcoma cell line were stained with 1 μg/ml of mMP-E-8.3 antibody, or cMP-E-8.3 and hMP-E-8.3 at 100 ng/ml (blue line) and 1 ug/ml (green line) or with 1 μg/ml of a commercial antibody against Endosialin on ice for 30 minutes after incubation with a Goat anti-mouse/anti-human Alexa-488 conjugated antibodies for 1 hour on ice, cells were analyzed by flow cytometer (FACS). (C) Sjsa-1 human osteosarcoma cells were grown on glass coverslips for 24 hours. […]

[3] = molecular target: T1, human Endosialin expressed by Sjsa-1 cells (human); test: confocal microscopy on fixed Sjsa-1 cells
[4] = molecular target: T1, human Endosialin expressed by Sjsa-1 cells (human); test: flow cytometry and confocal microscopy on Sjsa-1 cells
[5] = molecular target: T1, human Endosialin expressed by Sjsa-1 cells (human); test: flow cytometry and confocal microscopy on Sjsa-1 Endosialin positive cells, 10 ug/ml

Measured: binding

B1: hMP-E-8.3 (antibody, V domains shown)
VH: QVQLQESGPGLVKPSETLSLTCTVSGFSLTGYGVNWIRQPPGKGLEWIGMIWVDGSTDYNSALKSRVTISVDTSKNQFSLKLSSVTAADTAVYYCARGGYGAMDYWGQGTLVTVSS
VL: DIQMTQSPSTLSASVGDRVTITCHASQNINVWLTWYQQKPGKAPKLLIYKASNLHTGVPSRFSGSGSGTEFTLTISSLQPDDFATYYCQQGQSYPWTFGGGTKLEIK
binds: [1] | [2]

B2: mMP-E-8.3 (antibody, V domains shown)
VH: QVQLQESGPGLVAPSQSLSITCTVSGFSLTGYGVNWVRQPPEKGLEWLGMIWVDGSTDYNSALKSRLNISKDKSKSQVFLKMNSLQTDDTARYYCARGGYGAMDYWGQGTSVTVSS
VL: B1 VL with T5N, T10S, V15L, R18T, V19I, K42N, A43I, E70G, D81E, F83I
not listed: [1]
binds: all other assays above
